Patent US20060229240A1 (GARDELL ET AL, published 2006)
Positions count from the first letter of the chain named. No constants are given. Whether binding was seen depends on the method and setting. Some results given as binding are weak or reduced against the parent protein; the word gives no strength. One block for each binder: values may come before it.

By UniProt entry, the sequences of proteins in these tests, tags left out. Where a name states a change or a piece, a line headed by the entry shows the natural chain unless it says otherwise. Residues count along the entry.
UniProt Q03431, residues 27-593: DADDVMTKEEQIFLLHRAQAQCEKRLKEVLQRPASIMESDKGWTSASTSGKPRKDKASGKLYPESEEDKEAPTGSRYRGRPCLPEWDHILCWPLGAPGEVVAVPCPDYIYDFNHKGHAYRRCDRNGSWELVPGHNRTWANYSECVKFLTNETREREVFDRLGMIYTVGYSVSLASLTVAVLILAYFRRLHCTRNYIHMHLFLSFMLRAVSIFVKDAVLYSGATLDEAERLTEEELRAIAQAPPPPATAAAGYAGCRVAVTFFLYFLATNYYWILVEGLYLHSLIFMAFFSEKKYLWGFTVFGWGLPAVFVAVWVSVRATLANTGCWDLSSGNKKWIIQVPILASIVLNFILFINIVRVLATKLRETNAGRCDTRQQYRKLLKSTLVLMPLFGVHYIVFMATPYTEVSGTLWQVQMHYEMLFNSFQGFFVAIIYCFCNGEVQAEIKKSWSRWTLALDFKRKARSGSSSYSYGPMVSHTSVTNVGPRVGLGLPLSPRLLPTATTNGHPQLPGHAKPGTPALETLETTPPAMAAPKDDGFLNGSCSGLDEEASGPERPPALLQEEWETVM

Molecular target: PTH/PTHrP receptor (P1R), wild-type, full-length (human) (UniProt Q03431)
Assay: radioligand competition on HKRK-B28 cells expressing P1R

B3: [Ala^6,10]PTH(1-34) (peptide)
peptide: SVSEIALMHALGKHLNSMERVEWLRKKLQDVHNY
modifications: C-terminal amide
binding: binds

B4: [Ala^10]PTH(1-34) (peptide)
peptide: B3 peptide with A6Q
modifications: C-terminal amide
binding: binds

Now from value to binder:

binding: binds
B1: PTH(1-34) ([Tyr^34]hPTH(1-34)amide) (peptide)
peptide: B3 peptide with A6Q, A10N
modifications: C-terminal amide

binding: binds
B2: [Ala^6]PTH(1-34) (peptide)
peptide: B3 peptide with A10N
modifications: C-terminal amide
